Literature values in US8748388B2, “Antitumoral compounds” (Pharma Mar, S.A., priority 2008, dated 2014).
Some entries share one result that the patent states for a list of compounds.

Test system: panel of cell lines
Conditions: Bayó-Puxan et al. 2006; cited from earlier work

Row | Substance | GI50 [µM]
1 | [NMe-Leu^4, NMe-Leu^8]azathiocoraline [[NMe-Leu^4, NMe-Leu^8] Azathiocoraline] | > 9.99
2 | [2QXA, NMe-Ala4] Azathiocoraline [[2QXA, NMe-Ala^4] Azathiocoraline] | > 9.99
